# Changes are numbered by the printed parent chain. pIC50: −log10 of the molar value. Construct, isoform or probe ends are uncertain for at least one entry. For part of these data: A negative result means that nothing was seen under these conditions. For part of these data: Protein sequences can lack the tags named with them.
# Chains of the proteins cited; added tags and fusions are not shown. Residues count along the entry.
# UniProt P10997, 34-70: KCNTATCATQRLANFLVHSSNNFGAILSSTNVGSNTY
# What was measured:
# [1] = molecular target: T1, human alpha-CGRP (L-peptide) (Homo sapiens) (UniProt P06881); assay: activity in cells; details: L-RNA; cAMP inhibition, SK-N-MC cells, 1 nM CGRP, 37 C; synthetic protein; mirror-image nucleic acid
# T1 sequence: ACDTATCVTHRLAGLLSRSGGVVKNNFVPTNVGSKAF
# [2] = molecular target: human amylin (L-peptide) (Homo sapiens) (UniProt P10997); assay: SPR; details: L-RNA, L-dC at 41; no binding detected; synthetic protein; mirror-image nucleic acid; variant of 226-F2-001 (L)
# [3] = molecular target: human amylin (L-peptide) (Homo sapiens) (UniProt P10997); assay: activity in cells; details: L-RNA, synthetic protein, mirror-image nucleic acid
# [4] = molecular target: T2, rat alpha-CGRP (L-peptide) (Rattus norvegicus) (UniProt P01256); assay: activity in cells; details: L-RNA, L-dC at 41, 5'-40 kDa PEG; cAMP inhibition, 1 nM rat CGRP, 37 C; synthetic protein; mirror-image nucleic acid; variant of 226-F2-001-D41
# T2 sequence: T1 sequence with A1S, D3N, N25D, K35E
sequence,measurement,setting,value
CGUGCUGUCGGAGACUACUCGUCGAGUAGAAAUAGGUCCCCUCCCACG [212-G1-001 (L)],pIC50,[1],8.06
CCGUGCUGUCGGAGACUACUCGUCGAGUAGAAAUAGGUCCCCUCCCACGG [226-F2-001 (L)],pIC50,[1],8.46
CCGUGCUGUCGGAGACUACUCGUCGAGUAGAAAUAGGUCCCCUCCCACGG [226-F2-001-D41],binding result,[2],no binding
GGACUGAUGGCGCGGUCCUAUUACGCCGAUAGGGUGAGGGG [amylin-binding control Spiegelmer],functional effect of the aptamer,"[3]; 5'-40 kDa PEG, inhibits human amylin-induced cAMP in MCF-7 cells, dose not given here",active
CCGUGCUGUCGGAGACUACUCGUCGAGUAGAAAUAGGUCCCCUCCCACGG [NOX-L41 (226-F2-001-D41-5'-40kDa-PEG)],pIC50,"[3]; L-dC at 41, 5'-40 kDa PEG, no inhibition of human amylin-induced cAMP up to 1 uM, MCF-7 cells, variant of 226-F2-001-D41",< 6.00
same,pIC50,[4],8.44

# From US20150031755
